The source of these data is PubChem BioAssay (Tox21).

Most of the hits are listed elsewhere, so they are rarer here than in the full data. Records with an inconclusive call do not appear. Calls of active or inactive are those of the source. Calls follow the shape of the dose curve; as a rule, active = well fitted cell-killing curve with a large enough effect in the repeat runs; inconclusive = weak or mixed curves, or effect the other way; inactive = flat fitted curve, though single readings scatter.

The nature of assay [1]: cAMP Responsive Elements (CRE) small molecule antagonists, cell-based qHTS assay: qHTS cell viability counter screen (AID 2060913). Also: nearly all actives have a fitted effect of over 40% in size. The note with it: CRE-bla HEK293T viability, CellTiter-Glo luminescence, 5 h; at 42.5 µM (top of the series). Put shortly:
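Viability of NKH477-stimulated (0.25 uM final) CRE-bla HEK293T cells is measured by CellTiter-Glo luminescence following 3 hrs compound exposure at 37 C.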

Assay [2] is described as follows: cAMP Responsive Elements (CRE) small molecule agonists, cell-based qHTS assay: qHTS cell viability counter screen (AID 2060914). Also: nearly all actives have a fitted effect of over 50% in size. The note with it: CRE-bla HEK293T viability, CellTiter-Glo luminescence, 5 h; at 42.5 µM (top of the series). In outline: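 In the same wells as the reporter read, viability of CRE-bla HEK 293T cells was quantified by CellTiter-Glo luminescence after a 3 h compound exposure.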
(Quantitative high-throughput screening tests each substance at several concentrations.)
% is scaled to controls: 0 for no effect and ±100 for the full control effect.

`CC(C)(C)c1ccc(O)cc1`: the viability change, negative = cytotoxic in assay [1] was inactive: 0.0117%. In assay [2], the activity change, negative = cytotoxicity is inactive: -5.58%.
